Experimental data published in US20140030266A1.
No constants are given. Whether binding was seen depends on the method and setting. Binding can be weak; no strength is given.

Chains of the proteins cited; added tags and fusions are not shown. Lines headed by an entry give the natural chain unless they say otherwise; changes in a name come on top. Residues count along the entry.
UniProt P04233: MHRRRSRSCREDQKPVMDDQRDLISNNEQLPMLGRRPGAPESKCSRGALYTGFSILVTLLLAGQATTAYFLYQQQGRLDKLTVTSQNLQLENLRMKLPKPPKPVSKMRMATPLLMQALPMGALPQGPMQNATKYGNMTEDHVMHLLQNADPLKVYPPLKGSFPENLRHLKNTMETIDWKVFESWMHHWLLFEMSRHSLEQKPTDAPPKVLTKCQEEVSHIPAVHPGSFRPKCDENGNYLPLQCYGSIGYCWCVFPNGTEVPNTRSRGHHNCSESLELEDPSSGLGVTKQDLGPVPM
UniProt P30046, residues 2-118: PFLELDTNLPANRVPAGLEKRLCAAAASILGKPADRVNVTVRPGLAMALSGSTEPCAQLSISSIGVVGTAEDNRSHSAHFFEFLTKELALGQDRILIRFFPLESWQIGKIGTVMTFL

Columns and labels:
[1] = biological target: MIF receptor CD74 ectodomain (CD74 73-232, sCD74) (UniProt P04233); assay: competition binding and SPR (legend of FIG. 3)
[2] = biological target: MIF receptor CD74 ectodomain (CD74 73-232, sCD74) (UniProt P04233); assay: summary sentence of Example 1
[3] = biological target: MIF receptor CD74 ectodomain (CD74 73-232, sCD74) (UniProt P04233); assay: competition binding assay on sCD74 with biotinylated human MIF as the competed ligand [panel A]
[4] = biological target: MIF receptor CD74 ectodomain (CD74 73-232, sCD74) (UniProt P04233); assay: SPR (BIAcore 2000)
[5] = biological target: MIF receptor CD74 ectodomain (CD74 73-232, sCD74) (UniProt P04233); assay: competition binding and SPR
[6] = biological target: MIF receptor CD74 ectodomain (CD74 73-232, sCD74) (UniProt P04233); assay: surface plasmon resonance (BIAcore), sCD74 immobilized, D-DT in five serial dilutions [panel B]

Measured: binding

human D-dopachrome tautomerase (D-DT), recombinant native-sequence protein (from UniProt P30046 2-118) (ligand)
binds: all assays above
